Results are given in words; binding and its absence hold for the method and conditions named. Binding seen in cells or lysates may run through a third protein. A result given as binding can be weak or reduced; the word gives no strength. Where a sequence is shown, tags or fusion partners need not be part of it.
Biological target: T1, Warts (Wts), Myc-tagged (Drosophila) (UniProt Q9VA38)
T1 sequence: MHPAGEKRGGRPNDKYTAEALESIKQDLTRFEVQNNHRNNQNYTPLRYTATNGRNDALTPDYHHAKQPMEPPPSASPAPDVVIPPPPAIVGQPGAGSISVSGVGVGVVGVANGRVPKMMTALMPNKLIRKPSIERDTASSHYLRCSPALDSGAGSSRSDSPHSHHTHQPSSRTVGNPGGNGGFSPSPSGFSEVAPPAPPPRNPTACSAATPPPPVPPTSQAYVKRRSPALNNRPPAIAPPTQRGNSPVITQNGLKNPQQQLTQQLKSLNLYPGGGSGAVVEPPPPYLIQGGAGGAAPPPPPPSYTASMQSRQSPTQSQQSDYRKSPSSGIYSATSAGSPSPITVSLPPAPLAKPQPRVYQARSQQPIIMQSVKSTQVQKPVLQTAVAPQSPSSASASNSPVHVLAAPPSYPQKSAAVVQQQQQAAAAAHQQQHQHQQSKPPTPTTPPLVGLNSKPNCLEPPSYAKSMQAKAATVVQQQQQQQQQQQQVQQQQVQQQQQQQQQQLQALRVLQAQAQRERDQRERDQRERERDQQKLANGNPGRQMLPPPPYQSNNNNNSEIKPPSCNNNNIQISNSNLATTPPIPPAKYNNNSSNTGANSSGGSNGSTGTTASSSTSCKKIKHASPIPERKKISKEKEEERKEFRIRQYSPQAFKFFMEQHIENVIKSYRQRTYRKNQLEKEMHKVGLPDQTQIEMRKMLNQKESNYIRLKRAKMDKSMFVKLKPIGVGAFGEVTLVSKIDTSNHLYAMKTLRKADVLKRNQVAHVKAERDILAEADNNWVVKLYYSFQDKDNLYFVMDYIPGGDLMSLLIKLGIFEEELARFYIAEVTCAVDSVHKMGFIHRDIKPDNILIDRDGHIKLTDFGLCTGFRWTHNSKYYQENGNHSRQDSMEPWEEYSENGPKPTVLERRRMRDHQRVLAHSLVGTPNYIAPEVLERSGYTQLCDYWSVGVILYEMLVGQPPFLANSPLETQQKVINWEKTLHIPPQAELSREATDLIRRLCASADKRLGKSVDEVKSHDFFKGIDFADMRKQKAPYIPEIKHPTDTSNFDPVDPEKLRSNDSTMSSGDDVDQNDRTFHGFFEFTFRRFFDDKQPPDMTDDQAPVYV
Experiment: co-IP; HA-Hppy and Myc-Wts coexpressed in Drosophila S2 cells; immunoprecipitation and western blot as in ref. 33; which protein was precipitated is not told

binding: binds
Substance: Happyhour (Hppy), HA-tagged (Drosophila) (enzyme)
